Assay results as given in paper doi:10.1101/2022.10.27.514150.
These are yes or no findings as the source states them, for the method shown. In cells and extracts the contact can be indirect. These calls come from enrichment with a bait or labelling near it, and not all partners need be listed. No binding means not detected with the bait.

The chains behind the UniProt entries cited, without tags or fusion partners. Where a name states a change or a piece, a line headed by the entry shows the natural chain unless it says otherwise.
UniProt O15350, whole entry, looked up, stated change not applied: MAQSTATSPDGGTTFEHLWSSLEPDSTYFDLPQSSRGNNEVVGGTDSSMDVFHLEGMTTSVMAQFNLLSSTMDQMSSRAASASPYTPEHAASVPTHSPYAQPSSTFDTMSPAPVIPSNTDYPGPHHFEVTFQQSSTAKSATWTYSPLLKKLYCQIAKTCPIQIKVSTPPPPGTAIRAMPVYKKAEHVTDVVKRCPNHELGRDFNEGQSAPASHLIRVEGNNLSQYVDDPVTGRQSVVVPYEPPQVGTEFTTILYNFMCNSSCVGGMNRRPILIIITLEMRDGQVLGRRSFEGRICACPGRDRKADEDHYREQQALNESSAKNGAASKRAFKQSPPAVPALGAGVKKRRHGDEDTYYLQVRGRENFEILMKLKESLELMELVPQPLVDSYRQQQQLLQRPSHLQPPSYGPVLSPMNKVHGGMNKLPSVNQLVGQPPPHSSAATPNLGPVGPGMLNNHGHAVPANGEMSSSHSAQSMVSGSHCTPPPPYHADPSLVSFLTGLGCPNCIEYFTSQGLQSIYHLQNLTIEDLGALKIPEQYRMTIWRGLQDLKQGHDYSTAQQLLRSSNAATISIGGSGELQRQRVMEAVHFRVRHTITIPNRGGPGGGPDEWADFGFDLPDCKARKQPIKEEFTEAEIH

Target: T1, ΔNp73α-TAP (UniProt O15350)
T1 sequence: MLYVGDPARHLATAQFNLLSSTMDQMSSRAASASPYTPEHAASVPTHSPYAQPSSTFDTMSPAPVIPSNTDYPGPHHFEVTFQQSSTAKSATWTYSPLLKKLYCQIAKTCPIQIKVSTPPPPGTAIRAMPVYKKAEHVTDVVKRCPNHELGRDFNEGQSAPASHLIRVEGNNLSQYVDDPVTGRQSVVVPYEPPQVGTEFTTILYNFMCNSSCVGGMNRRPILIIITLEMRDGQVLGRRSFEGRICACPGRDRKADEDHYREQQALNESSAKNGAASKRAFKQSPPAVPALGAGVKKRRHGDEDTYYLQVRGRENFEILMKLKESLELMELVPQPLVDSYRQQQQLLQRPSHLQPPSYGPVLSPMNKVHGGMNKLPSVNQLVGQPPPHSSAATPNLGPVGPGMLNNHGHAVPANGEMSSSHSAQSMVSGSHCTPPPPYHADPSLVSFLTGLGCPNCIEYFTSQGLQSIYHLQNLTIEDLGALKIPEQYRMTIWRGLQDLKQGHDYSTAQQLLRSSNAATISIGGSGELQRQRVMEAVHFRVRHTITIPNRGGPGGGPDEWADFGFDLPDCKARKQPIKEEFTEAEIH
Assay: affinity purification with mass spectrometry

Row | Substance | binding
1 | HPV38 E7 oncoprotein in 38HK (human papillomavirus type 38) | no binding
2 | HPV38 E6 oncoprotein in 38HK (human papillomavirus type 38) | no binding
